Data reported in PMC5341041.
These are yes or no findings as the source states them, for the method shown. Binding seen in cells or lysates may run through a third protein. Here binding means that the protein was enriched with, or labelled near, the bait; the list need not be complete. Each block holds one molecule with its values, some of them ahead of it.

The chains behind the UniProt entries cited, without tags or fusion partners.
UniProt P53115: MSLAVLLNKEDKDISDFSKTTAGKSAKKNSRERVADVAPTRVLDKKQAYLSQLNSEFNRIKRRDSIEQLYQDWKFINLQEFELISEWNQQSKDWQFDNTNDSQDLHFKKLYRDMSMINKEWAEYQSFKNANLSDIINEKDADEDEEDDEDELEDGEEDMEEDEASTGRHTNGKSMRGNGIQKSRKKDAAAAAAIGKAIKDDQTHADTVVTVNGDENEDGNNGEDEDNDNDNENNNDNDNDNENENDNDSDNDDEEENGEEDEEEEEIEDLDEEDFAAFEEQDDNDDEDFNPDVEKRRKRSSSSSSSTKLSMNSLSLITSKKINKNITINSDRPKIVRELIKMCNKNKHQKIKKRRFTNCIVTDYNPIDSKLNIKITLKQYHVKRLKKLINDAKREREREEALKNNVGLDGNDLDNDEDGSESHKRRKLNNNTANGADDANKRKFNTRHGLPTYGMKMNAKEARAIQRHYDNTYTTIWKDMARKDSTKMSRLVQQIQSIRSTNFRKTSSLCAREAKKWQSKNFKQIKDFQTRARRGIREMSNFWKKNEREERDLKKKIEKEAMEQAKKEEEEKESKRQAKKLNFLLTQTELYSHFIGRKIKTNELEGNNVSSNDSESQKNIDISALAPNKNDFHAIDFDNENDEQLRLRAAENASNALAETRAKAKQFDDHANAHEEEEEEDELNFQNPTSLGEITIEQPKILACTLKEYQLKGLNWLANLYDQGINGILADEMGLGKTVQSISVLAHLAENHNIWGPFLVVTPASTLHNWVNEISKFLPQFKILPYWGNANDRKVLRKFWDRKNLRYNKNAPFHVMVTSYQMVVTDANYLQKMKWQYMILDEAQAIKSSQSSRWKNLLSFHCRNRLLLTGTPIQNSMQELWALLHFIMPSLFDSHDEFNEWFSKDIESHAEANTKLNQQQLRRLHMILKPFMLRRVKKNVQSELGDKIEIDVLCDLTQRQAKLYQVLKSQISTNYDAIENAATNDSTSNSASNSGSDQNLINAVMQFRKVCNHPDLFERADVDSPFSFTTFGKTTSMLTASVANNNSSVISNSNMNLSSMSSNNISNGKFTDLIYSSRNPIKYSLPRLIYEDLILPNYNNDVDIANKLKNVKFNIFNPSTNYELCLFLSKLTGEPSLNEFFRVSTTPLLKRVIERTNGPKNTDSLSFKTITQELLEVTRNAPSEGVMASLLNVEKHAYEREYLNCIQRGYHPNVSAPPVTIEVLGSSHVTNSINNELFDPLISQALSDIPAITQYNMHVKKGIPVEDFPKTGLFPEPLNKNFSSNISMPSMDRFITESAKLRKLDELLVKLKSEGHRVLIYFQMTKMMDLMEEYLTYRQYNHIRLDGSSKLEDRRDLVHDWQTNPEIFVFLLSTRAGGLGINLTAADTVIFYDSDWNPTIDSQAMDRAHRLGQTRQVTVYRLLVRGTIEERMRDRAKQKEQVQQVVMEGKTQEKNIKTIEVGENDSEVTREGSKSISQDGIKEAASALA
UniProt P35189: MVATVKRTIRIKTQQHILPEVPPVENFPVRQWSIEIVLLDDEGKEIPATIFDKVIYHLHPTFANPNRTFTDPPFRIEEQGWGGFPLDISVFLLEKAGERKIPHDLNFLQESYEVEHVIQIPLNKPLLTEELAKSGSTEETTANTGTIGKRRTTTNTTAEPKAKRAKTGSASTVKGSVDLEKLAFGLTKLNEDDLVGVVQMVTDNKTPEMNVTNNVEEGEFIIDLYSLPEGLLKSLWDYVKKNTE
UniProt Q12464: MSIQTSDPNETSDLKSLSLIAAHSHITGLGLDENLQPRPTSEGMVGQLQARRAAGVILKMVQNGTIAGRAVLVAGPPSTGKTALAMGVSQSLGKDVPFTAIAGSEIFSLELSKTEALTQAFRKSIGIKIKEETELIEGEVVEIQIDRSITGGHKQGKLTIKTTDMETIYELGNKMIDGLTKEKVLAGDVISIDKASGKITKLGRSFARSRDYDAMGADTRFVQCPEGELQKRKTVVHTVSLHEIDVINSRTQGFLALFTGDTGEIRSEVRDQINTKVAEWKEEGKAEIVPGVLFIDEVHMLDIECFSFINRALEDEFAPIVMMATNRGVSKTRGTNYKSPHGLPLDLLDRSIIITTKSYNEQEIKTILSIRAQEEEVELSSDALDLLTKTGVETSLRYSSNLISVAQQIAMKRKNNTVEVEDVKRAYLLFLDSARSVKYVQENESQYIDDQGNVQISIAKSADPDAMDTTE
UniProt Q03940: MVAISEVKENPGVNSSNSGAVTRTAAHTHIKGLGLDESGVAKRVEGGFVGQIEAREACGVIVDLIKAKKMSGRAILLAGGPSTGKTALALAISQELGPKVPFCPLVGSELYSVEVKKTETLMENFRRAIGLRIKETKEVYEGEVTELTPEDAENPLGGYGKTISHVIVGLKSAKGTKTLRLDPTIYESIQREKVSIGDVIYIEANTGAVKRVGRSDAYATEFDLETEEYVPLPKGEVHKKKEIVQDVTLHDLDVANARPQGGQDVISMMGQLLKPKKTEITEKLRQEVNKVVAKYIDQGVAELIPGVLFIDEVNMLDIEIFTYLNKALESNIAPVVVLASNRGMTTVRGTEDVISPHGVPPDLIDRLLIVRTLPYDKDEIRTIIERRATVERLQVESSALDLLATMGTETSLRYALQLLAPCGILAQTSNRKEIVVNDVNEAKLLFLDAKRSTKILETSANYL

Experiments:
Experiment in all cases: affinity purification with mass spectrometry; TAP purification of TAP-tagged INO80 subunits from wild-type S. cerevisiae grown in YPD; MudPIT, spectral counts, dNSAF
Arp8 (S. cerevisiae) = biological target: T1, Arp8 (S. cerevisiae) (UniProt Q12386)
T1 sequence: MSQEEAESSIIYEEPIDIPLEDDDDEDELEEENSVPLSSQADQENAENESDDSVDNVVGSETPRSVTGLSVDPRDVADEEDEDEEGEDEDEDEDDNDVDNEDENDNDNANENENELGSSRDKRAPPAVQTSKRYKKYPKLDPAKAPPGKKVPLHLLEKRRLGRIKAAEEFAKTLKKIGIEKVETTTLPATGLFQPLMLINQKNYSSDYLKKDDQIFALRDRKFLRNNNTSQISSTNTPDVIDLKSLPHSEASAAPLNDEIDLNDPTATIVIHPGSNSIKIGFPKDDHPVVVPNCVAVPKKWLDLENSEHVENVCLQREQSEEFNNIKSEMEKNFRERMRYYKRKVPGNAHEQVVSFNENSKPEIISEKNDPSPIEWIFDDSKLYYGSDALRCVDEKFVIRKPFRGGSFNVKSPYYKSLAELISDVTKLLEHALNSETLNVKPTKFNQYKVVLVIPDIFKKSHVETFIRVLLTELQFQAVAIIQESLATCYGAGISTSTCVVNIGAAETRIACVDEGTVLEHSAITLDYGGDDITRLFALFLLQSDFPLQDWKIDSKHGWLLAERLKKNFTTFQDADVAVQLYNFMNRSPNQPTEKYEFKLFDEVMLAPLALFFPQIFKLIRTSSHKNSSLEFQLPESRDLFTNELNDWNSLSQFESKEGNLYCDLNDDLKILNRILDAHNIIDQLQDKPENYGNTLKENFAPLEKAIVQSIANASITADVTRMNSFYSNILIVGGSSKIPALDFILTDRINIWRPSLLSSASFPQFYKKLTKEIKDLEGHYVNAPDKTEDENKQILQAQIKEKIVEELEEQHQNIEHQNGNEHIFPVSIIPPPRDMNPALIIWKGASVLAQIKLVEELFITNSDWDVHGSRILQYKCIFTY

Ies1 (S. cerevisiae) = biological target: T2, Ies1 (S. cerevisiae) (UniProt P43579)
T2 sequence: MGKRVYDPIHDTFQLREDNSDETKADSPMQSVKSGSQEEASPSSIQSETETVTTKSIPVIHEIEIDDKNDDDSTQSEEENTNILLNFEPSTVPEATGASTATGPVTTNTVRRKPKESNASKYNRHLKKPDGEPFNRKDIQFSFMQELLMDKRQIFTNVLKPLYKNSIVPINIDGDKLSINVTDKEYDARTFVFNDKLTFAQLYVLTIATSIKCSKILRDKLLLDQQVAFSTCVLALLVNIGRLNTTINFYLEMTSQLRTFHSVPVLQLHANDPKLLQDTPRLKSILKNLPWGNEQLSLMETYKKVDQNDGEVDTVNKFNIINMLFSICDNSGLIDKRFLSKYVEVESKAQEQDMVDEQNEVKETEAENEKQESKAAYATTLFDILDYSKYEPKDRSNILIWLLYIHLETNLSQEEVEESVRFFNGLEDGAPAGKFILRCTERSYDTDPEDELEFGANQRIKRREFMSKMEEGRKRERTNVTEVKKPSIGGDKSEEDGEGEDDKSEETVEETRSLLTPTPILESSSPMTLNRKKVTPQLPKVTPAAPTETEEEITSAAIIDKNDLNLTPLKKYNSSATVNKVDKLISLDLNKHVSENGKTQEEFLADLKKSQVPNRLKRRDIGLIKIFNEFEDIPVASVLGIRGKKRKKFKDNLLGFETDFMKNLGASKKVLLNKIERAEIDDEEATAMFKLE

Ies2 (S. cerevisiae) = biological target: T3, Ies2 (S. cerevisiae) (UniProt P40154)
T3 sequence: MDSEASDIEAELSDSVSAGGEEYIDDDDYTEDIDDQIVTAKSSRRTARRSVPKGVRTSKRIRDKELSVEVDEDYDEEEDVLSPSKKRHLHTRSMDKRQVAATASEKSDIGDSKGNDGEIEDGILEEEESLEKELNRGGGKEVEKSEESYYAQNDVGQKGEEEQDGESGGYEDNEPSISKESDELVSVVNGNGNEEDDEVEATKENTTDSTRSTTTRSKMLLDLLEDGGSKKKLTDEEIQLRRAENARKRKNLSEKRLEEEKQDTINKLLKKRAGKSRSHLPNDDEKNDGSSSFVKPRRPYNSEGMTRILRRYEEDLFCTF

Ies3 (S. cerevisiae) = biological target: T4, Ies3 (S. cerevisiae) (UniProt Q12345)
T4 sequence: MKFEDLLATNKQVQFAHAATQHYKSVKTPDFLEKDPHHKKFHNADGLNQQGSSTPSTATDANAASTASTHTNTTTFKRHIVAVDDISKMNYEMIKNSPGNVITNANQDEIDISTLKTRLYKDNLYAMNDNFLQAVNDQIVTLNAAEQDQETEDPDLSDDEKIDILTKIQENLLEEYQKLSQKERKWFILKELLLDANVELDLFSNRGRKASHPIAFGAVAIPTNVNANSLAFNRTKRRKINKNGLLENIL

Ies5 (S. cerevisiae) = biological target: T5, Ies5 (S. cerevisiae) (UniProt P40060)
T5 sequence: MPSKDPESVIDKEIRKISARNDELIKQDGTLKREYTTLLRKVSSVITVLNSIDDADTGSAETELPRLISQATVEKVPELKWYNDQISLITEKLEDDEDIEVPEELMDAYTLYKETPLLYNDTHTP

Ies6 (S. cerevisiae) = biological target: T6, Ies6 (S. cerevisiae) (UniProt P32617)
T6 sequence: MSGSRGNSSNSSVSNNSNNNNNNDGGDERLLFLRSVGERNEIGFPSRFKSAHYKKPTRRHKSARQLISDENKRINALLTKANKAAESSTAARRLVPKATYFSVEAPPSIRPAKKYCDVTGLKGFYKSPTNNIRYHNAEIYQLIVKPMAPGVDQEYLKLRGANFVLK

Ino80 (S. cerevisiae) = Ino80 (S. cerevisiae) (UniProt P53115)
Nhp10 (S. cerevisiae) = biological target: T7, Nhp10 (S. cerevisiae) (UniProt Q03435)
T7 sequence: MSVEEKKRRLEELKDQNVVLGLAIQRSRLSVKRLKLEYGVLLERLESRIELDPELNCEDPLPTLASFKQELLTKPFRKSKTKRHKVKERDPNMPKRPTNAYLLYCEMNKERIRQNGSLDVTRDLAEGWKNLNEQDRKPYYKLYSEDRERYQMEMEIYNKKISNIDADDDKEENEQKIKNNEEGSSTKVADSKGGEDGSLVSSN

B1: Nhp10 (protein, UniProt Q03435 1-203)
chain: T7 sequence
binding (Arp8 (S. cerevisiae)): binds | binding (Ies2 (S. cerevisiae)): binds | binding (Ies3 (S. cerevisiae)): binds | binding (Ies5 (S. cerevisiae)): binds | binding (Ies6 (S. cerevisiae)): binds | binding (Ino80 (S. cerevisiae)): binds

B2: Fba1 (protein, UniProt P14540 1-359)
chain: MGVEQILKRKTGVIVGEDVHNLFTYAKEHKFAIPAINVTSSSTAVAALEAARDSKSPIILQTSNGGAAYFAGKGISNEGQNASIKGAIAAAHYIRSIAPAYGIPVVLHSDHCAKKLLPWFDGMLEADEAYFKEHGEPLFSSHMLDLSEETDEENISTCVKYFKRMAAMDQWLEMEIGITGGEEDGVNNENADKEDLYTKPEQVYNVYKALHPISPNFSIAAAFGNCHGLYAGDIALRPEILAEHQKYTREQVGCKEEKPLFLVFHGGSGSTVQEFHTGIDNGVVKVNLDTDCQYAYLTGIRDYVLNKKDYIMSPVGNPEGPEKPNKKFFDPRVWVREGEKTMGAKITKSLETFRTTNTL
binding (Ino80 (S. cerevisiae)): binds

B3: Ies1 (protein, UniProt P43579 1-692)
chain: T2 sequence
binding (Arp8 (S. cerevisiae)): binds | binding (Ies2 (S. cerevisiae)): binds | binding (Ies6 (S. cerevisiae)): binds | binding (Ino80 (S. cerevisiae)): binds

B4: Ies5 (protein, UniProt P40060 1-125)
chain: T5 sequence
binding (Arp8 (S. cerevisiae)): binds | binding (Ies2 (S. cerevisiae)): binds | binding (Ies3 (S. cerevisiae)): binds | binding (Ies6 (S. cerevisiae)): binds | binding (Ino80 (S. cerevisiae)): binds | binding (Nhp10 (S. cerevisiae)): binds

B5: Ies3 (protein, UniProt Q12345 1-250)
chain: T4 sequence
binding (Arp8 (S. cerevisiae)): binds | binding (Ies2 (S. cerevisiae)): binds | binding (Ies5 (S. cerevisiae)): binds | binding (Ies6 (S. cerevisiae)): binds | binding (Ino80 (S. cerevisiae)): binds | binding (Nhp10 (S. cerevisiae)): binds

B6: Ies2 (protein, UniProt P40154 1-320)
chain: T3 sequence
binding (Arp8 (S. cerevisiae)): binds | binding (Ies1 (S. cerevisiae)): binds | binding (Ies3 (S. cerevisiae)): binds | binding (Ies5 (S. cerevisiae)): binds | binding (Ies6 (S. cerevisiae)): binds | binding (Nhp10 (S. cerevisiae)): binds

Continued, values first:

binding (Arp8 (S. cerevisiae)): binds | binding (Ies1 (S. cerevisiae)): binds | binding (Ies2 (S. cerevisiae)): binds | binding (Ies3 (S. cerevisiae)): binds | binding (Ies5 (S. cerevisiae)): binds | binding (Ies6 (S. cerevisiae)): binds | binding (Ino80 (S. cerevisiae)): binds | binding (Nhp10 (S. cerevisiae)): binds
Molecule: Taf14 (from UniProt P35189 1-244)

binding (Arp8 (S. cerevisiae)): binds | binding (Ies1 (S. cerevisiae)): binds | binding (Ies2 (S. cerevisiae)): binds | binding (Ies3 (S. cerevisiae)): binds | binding (Ies5 (S. cerevisiae)): binds | binding (Nhp10 (S. cerevisiae)): binds
Molecule: Rvb2 (from UniProt Q12464 1-471)

binding (Arp8 (S. cerevisiae)): binds | binding (Ies1 (S. cerevisiae)): binds | binding (Ies2 (S. cerevisiae)): binds | binding (Ies3 (S. cerevisiae)): binds | binding (Ies5 (S. cerevisiae)): binds | binding (Nhp10 (S. cerevisiae)): binds
Molecule: Rvb1 (from UniProt Q03940 1-463)
